Earlier results as cited in patent US20120020948A1, “DAG-TYPE AND INDIRECT PROTEIN KINASE C ACTIVATORS AND ANTICOAGULANT FOR THE TREATMENT OF STROKE” (priority 2010, published 2012).
For at least one compound, name, drawing or mass did not settle the structure.

System: PKC
Conditions: K562 cells

SMILES: C=C(C)[C@@]12C[C@@H](COC(=O)c3ccccc3)[C@@]34OC5(O[C@@H]1[C@@H]3[C@@H]1O[C@]1(CO)[C@@H](O)[C@@]1(O)[C@H]4[C@H]([C@H](C)[C@@H]1OC(=O)c1ccccc1)[C@H](C)CCCCCC[C@H]5O)O2 [Gnidimacrin]
- concentration at which it acts as a PKC activator: 0.3 nM
